In PubChem BioAssay AID485314 (National Center for Advancing Translational Sciences (NCATS), 2010):
Among all 340,000 compounds or so, about 4,500 (1.3%) were called active. This list was built around the results that the source calls inconclusive (neither active nor inactive); the mix of calls is not that of the screen. Calls follow the shape of the dose curve; as a rule, active = well fitted inhibition curve with a large enough effect; inconclusive = small, poorly fitted or top-dose-only effect, or another doubt; inactive = no such curve, though single readings can be large or run the other way. Potencies of inconclusive entries are doubtful fits and often do not repeat.

target: DNA polymerase beta (Homo sapiens) (UniProt P06746); assay: qHTS Assay for Inhibitors of DNA Polymerase Beta; conditions: Pol beta primer extension/strand displacement, fluorescence kinetic; series mostly up to 114 µM
How it was run: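 Preincubation: enzyme (10 nM) with compound, 15 min, RT. Reaction: substrate added to 50 nM final. Reads: 0 and 10 min. Analysis: normalized, Hill fit.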
Potency is read from the fitted curve at half-maximal effect.

SMILES | Potency
O=C(CCCn1c(=O)c2cccn2c2ccccc21)NCc1ccccc1Br | inactive
CC(C)CNc1nc(N)c([N+](=O)[O-])c(N2CCCCCC2)n1 | inactive
Cn1c(=O)c2cc(S(=O)(=O)NC(C(=O)NCc3cccnc3)c3ccccc3)ccc2n(C)c1=O (stereo unspecified) | inconclusive: 89.1 µM [inhibitor, single point]
COc1ccc2cc(C3CC(c4ccco4)=NN3S(=O)(=O)c3ccccc3)c(Cl)nc2c1 (stereo unspecified) | inconclusive: 1.26 µM [inhibitor, full curve, poor fit]
CC(C)c1ccccc1NC(=O)COC(=O)COc1ccccc1[N+](=O)[O-] | inconclusive: 89.1 µM [inhibitor, single point]
COc1ccc(/C=C2\SC(=S)N(CCC(=O)Nc3cccc(C(=O)O)c3)C2=O)cc1 | inconclusive: 39.8 µM [inhibitor, single point]
Cc1ccc(C(=O)Nc2nc3ccc(S(C)(=O)=O)cc3s2)cc1C | inconclusive: 39.8 µM [inhibitor, single point]
CCn1c(SCC(=O)Nc2ccc3c(c2)c2ccccc2n3CC)nnc1-c1ccco1 | inactive
On1onc2c3cc(-c4ccccc4)nc3ccc21 | inconclusive: 44.7 µM [inhibitor, single point]
CC(C)(C)c1ccc(/C=C2\Oc3cc(O)ccc3C2=O)cc1 | inactive
COc1cc(CNCCSc2nnnn2C)ccc1OCc1ccc(Cl)cc1Cl | inactive
O=C(CCS(=O)(=O)c1cc(Br)cc2c1N(C(=O)C1CC1)CC2)NCc1ccco1 | inconclusive: 35.5 µM [inhibitor, full curve, poor fit]
O=C(CCc1ccccc1)NNC(=O)c1ccc(NC(=O)c2ccccc2)cc1 | active: 22.4 µM
COc1ccc(OC)c(/C=c2\sc3nc(-c4cccs4)nn3c2=O)c1 | inconclusive: 1 µM [inhibitor, full curve, poor fit]
CCOC(=O)c1sc(=S)n(C)c1NC(=O)c1ccc(C(C)(C)C)cc1 | inconclusive: 25.1 µM [inhibitor, single point]
CCC(C(=O)Nc1ccc(C)c(Cl)c1)n1c(=O)c(-c2ccccc2NC(C)=O)nc2ccccc21 (stereo unspecified) | inactive
O=C(CSc1nc(-c2ccccc2)nc2cc(=O)[nH]n12)Nc1ccccc1 | inconclusive: 56.2 µM [inhibitor, partial curve]
C/C(=N\NC(=O)c1cnccn1)c1ccc([N+](=O)[O-])cc1 | inactive
S=c1[nH]nc(-c2ccc3ccccc3n2)n1-c1ccc2ncccc2c1 | inconclusive: 25.1 µM [inhibitor, partial curve]
Cc1ccccc1Cn1c(=O)n(CCC(=O)NCc2ccco2)c(=O)c2sccc21 | inconclusive: 39.8 µM [inhibitor, full curve]
O=C(NCCn1cc(SCc2ccc(F)cc2)c2ccccc21)c1cccs1 | inactive
CNc1ccccc1C(=O)OC | inconclusive: 35.5 µM [inhibitor, single point]
CCN1CCN(CCC(=O)Nc2ccc3c(c2)OCO3)CC1 | inconclusive: 89.1 µM [inhibitor, single point]
Cc1ccc(NC(=O)CSc2nc(-c3ccco3)nc3cc(=O)[nH]n23)cc1 | active: 50.1 µM

SMILES | Potency
CCOc1ccc(C(=O)Nc2ccc(-n3nncc3-c3ccc(OC)cc3)cc2)cc1 | inconclusive: 100 µM [inhibitor, single point]
O=C(c1ccc(COc2ccc(F)cc2)o1)n1cc(Br)cn1 | active: 22.4 µM
COc1ccc(-c2onc3ccc(C(=O)/C=C/N(C)C)cc23)cc1 | inconclusive: 22.4 µM [inhibitor, full curve]
CCc1ccc(OC(=O)/C=C/c2ccco2)cc1 | active: 35.5 µM
O=C(CCc1nnc(CCCCc2ccccc2)o1)NCCN1CCOC1=O | inconclusive: 79.4 µM [inhibitor, single point]
CC(C)CNC(=O)COC(=O)c1c2c(nc3ccccc13)/C(=C/c1cccs1)CC2 | active: 17.8 µM
O=C(COC(=O)c1ccccc1OCc1ccccc1Cl)NC1CC1 | active: 20 µM
CN=C(c1ccco1)n1c(=S)nc(-c2ccco2)n(C)c1=S | inactive
COC(=O)c1ccc(Cn2c(SCc3ccc(F)cc3)nc3ccncc32)cc1 | inactive
Cc1cc(C)n(-c2nc(SCCN(C)C)c3c4c(sc3n2)CCCC4)n1 | inconclusive: 35.5 µM [inhibitor, partial curve]
Cc1cc(=O)[nH]c(SCC(=O)c2ccc(O)c(O)c2)n1 | active: 11.2 µM
COc1ccccc1CNC(=O)CCNS(=O)(=O)c1ccc2c(c1)oc(=O)n2C | inactive
CNC(=O)c1ccc2c(c1)N(Cc1ccccc1Cl)C(=O)c1ccccc1S2 | inconclusive: 89.1 µM [inhibitor, single point]
Cc1cccc(NC(=O)c2sc3nc(-c4cc5ccc(O)cc5oc4=O)[nH]c(=O)c3c2C)c1 | inconclusive: 4.47 µM [inhibitor, single point]
Cn1c2ccccc2c2cnn(CC(=O)Nc3ccccc3F)c(=O)c21 | inactive
Cc1cc(C)cc(NC(=O)c2c(C)oc3nc(C)nc(N4CCCC4)c23)c1 | inconclusive: 100 µM [inhibitor, single point]
CCC(=O)Nc1ccc(C(=O)Cn2nc(C(=O)O)c3ccccc3c2=O)cc1 | inconclusive: 15.8 µM [inhibitor, full curve]
Cc1ccc2nc(Nc3nc(C)cc(-c4ccccc4)n3)[nH]c(=O)c2c1 | inconclusive: 3.98 µM [inhibitor, single point]
COc1cccc(-c2noc(-c3cc(C(C)C)[nH]n3)n2)c1OC | inconclusive: 50.1 µM [inhibitor, single point]
COc1cc(/C=N/NC(=O)c2ccc(-c3ccccc3)cc2)cc(OC)c1OC | active: 35.5 µM
CCC(Sc1nc2ncccc2o1)C(=O)Nc1ccc(OC)c(OC)c1 (stereo unspecified) | inactive
Cc1ccc(C)c(Cn2c3ccccc3c3cnn(CC(=O)NCCc4ccccc4)c(=O)c32)c1 | inactive
CC(=O)c1ccc(S(=O)(=O)N2Cc3ccccc3CC2C(=O)O)cc1 (stereo unspecified) | active: 12.6 µM
COCCCn1c(=S)[nH]c2ccc(N3CCOCC3)cc2c1=O | inconclusive: 1.41 µM [inhibitor, full curve]

As entered above:
COc1cc(/C=N/NC(=O)c2ccc(-c3ccccc3)cc2)cc(OC)c1OC | Potency: active: 35.5 µM
O=C(NCCn1cc(SCc2ccc(F)cc2)c2ccccc21)c1cccs1 | Potency: inactive
CCC(C(=O)Nc1ccc(C)c(Cl)c1)n1c(=O)c(-c2ccccc2NC(C)=O)nc2ccccc21 (stereo unspecified) | Potency: inactive
Cc1ccc2nc(Nc3nc(C)cc(-c4ccccc4)n3)[nH]c(=O)c2c1 | Potency: inconclusive: 3.98 µM [inhibitor, single point]
Cn1c2ccccc2c2cnn(CC(=O)Nc3ccccc3F)c(=O)c21 | Potency: inactive

(more compounds)

SMILES | Potency
Fc1ccccc1Nc1nc(N2CCOCC2)nc(N2CCOCC2)n1 | inconclusive: 39.8 µM [inhibitor, single point]
COc1ccc(-c2c(C)nc(N)nc2-c2ccc(OCc3ccc(C)cc3)cc2O)cc1OC | inconclusive: 89.1 µM [inhibitor, single point]
COCC(C)n1c(C)cc(C(=O)COC(=O)c2ccc3c(c2)NC(=O)CS3)c1C (stereo unspecified) | inconclusive: 0.282 µM [inhibitor, full curve, poor fit]
CN(Cc1ccc(F)cc1)S(=O)(=O)c1nnc(NC(=O)c2ccccc2)s1 | inconclusive: 0.141 µM [inhibitor, full curve, poor fit]
COCCOC(=O)c1c(NC(=O)CNc2ccc(C)c(F)c2)sc(C(N)=O)c1C | inconclusive: 79.4 µM [inhibitor, single point]
Cc1ccc(-n2nc(-c3ccco3)cc2C(=O)NCc2cccnc2)cc1 | inconclusive: 44.7 µM [inhibitor, partial curve, poor fit]
CSc1ccc(-c2c(C#N)c(N)nc3c2c(C)nn3-c2ccccc2)cc1 | inconclusive: 79.4 µM [inhibitor, single point]
O=C1N=c2ccc(Br)cc2=C1c1sc(=S)n(NS(=O)(=O)c2ccccc2)c1O | inactive
O=C(Nc1ccccc1C(=O)NC(Cc1ccccc1)C(=O)O)c1ccccc1 (stereo unspecified) | inconclusive: 0.891 µM [inhibitor, full curve, poor fit]
CSc1ccc(/C=N/NC(=O)c2ccc(C)c(C)c2)cc1 | active: 25.1 µM
CN(CC(=O)NC(=O)NC(C)(C)C)CC(=O)Nc1ccccc1Cl | inconclusive: 100 µM [inhibitor, single point]
O=C(Nc1ccnn1C1CCN(Cc2cc(Cl)ccc2O)CC1)c1cccnc1 | inconclusive: 39.8 µM [inhibitor, single point]
Cc1ccc(NC(=O)c2oc3ccccc3c2NC(=O)C23CC4CC(CC(C4)C2)C3)cc1 | inactive
O=C(Nc1cccc(Cl)c1)Nc1ccc2nccnc2c1 | inconclusive: 44.7 µM [inhibitor, partial curve]
CC(=O)c1ccc(N2CCN(C(=O)COc3ccc4c(c3)CCC4)CC2)cc1 | active: 10 µM
C=C(C)COc1ccc(-c2n[nH]c(C)c2-c2ccccc2)c(O)c1 | inconclusive: 56.2 µM [inhibitor, single point]
Cc1ccc(NC(=O)CN(C)C2CCCCC2)cc1Cl | inconclusive: 3.98 µM [inhibitor, single point]
CC1CCCC(C)N1/N=C/C=C/c1ccccc1[N+](=O)[O-] (stereo unspecified) | inconclusive: 100 µM [inhibitor, single point]
COc1ccc(Br)cc1/C=C/C(=O)c1ccc(NC(C)=O)cc1 | inactive
Cc1ccc(N2C(=O)C3C(C2=O)C2C=CC3C23CC3)c([N+](=O)[O-])c1 (stereo unspecified) | inconclusive: 22.4 µM [inhibitor, single point]
Cc1ccc(C)n1-c1nc(=S)[nH][nH]1 | inactive
Cc1ccc(C)c(C(=O)NC(C)CCc2ccccc2)c1 (stereo unspecified) | inconclusive: 89.1 µM [inhibitor, single point]
N#Cc1nc(-c2ccccc2F)oc1NCCc1ccccn1 | inconclusive: 0.199 µM [inhibitor, full curve, poor fit]
